Patent publication US20130005747A1, “METHOD FOR SELECTING A CANCER THERAPY” (Cyclacel Limited, priority 2010, published 2013)

Tests used:
ACHN = experiment: Fractional growth, 72 h seliciclib; assay type: cell-based, human; conditions: ACHN (Kidney), 15 μM seliciclib
Text: (§1) A total of 270 human cancer cell lines from diverse cancer histopathologic types were investigated.

COLO 853 = experiment: Fractional growth, 72 h seliciclib; assay type: cell-based, human; conditions: COLO 853 (Skin), 15 μM seliciclib
Text: as §1

FTC-133 = experiment: Fractional growth, 72 h seliciclib; assay type: cell-based, human; conditions: FTC-133 (Thyroid), 15 μM seliciclib
Text: as §1

H2869 = experiment: Fractional growth, 72 h seliciclib; assay type: cell-based, human; conditions: H2869 (Lung), 15 μM seliciclib
Text: as §1

HCC-827 = experiment: Fractional growth, 72 h seliciclib; assay type: cell-based, human; conditions: HCC-827 (Lung: NSCLC), 15 μM seliciclib
Text: as §1

HT-1197 = experiment: Fractional growth, 72 h seliciclib; assay type: cell-based, human; conditions: HT-1197 (Bladder), 15 μM seliciclib
Text: as §1

HT-29 [1] = experiment: Fractional growth, 72 h seliciclib; assay type: cell-based, human; conditions: HT-29 (Intestine), 15 μM seliciclib
Text: as §1

J82 = experiment: Fractional growth, 72 h seliciclib; assay type: cell-based, human; conditions: J82 (Bladder), 15 μM seliciclib
Text: as §1

LCLC-97TM1 = experiment: Fractional growth, 72 h seliciclib; assay type: cell-based, human; conditions: LCLC-97TM1 (Lung: NSCLC), 15 μM seliciclib
Text: as §1

MDA-H2774 = experiment: Fractional growth, 72 h seliciclib; assay type: cell-based, human; conditions: MDA-H2774 (Ovary), 15 μM seliciclib
Text: as §1

NCI-H1703 = experiment: Fractional growth, 72 h seliciclib; assay type: cell-based, human; conditions: NCI-H1703 (Lung: NSCLC), 15 μM seliciclib
Text: as §1

Panc 10.05 = experiment: Fractional growth, 72 h seliciclib; assay type: cell-based, human; conditions: Panc 10.05 (Pancreas), 15 μM seliciclib
Text: as §1

S-117 = experiment: Fractional growth, 72 h seliciclib; assay type: cell-based, human; conditions: S-117 (Thyroid), 15 μM seliciclib
Text: as §1

SW-1710 = experiment: Fractional growth, 72 h seliciclib; assay type: cell-based, human; conditions: SW-1710 (Bladder), 15 μM seliciclib
Text: as §1

UMC-11 = experiment: Fractional growth, 72 h seliciclib; assay type: cell-based, human; conditions: UMC-11 (Lung), 15 μM seliciclib
Text: as §1

H1650 = experiment: Cell line IC50 (Table 3); assay type: cell-based; conditions: Homo sapiens, NCI-H1650
H2052 = experiment: Cell line IC50 (Table 3); assay type: cell-based; conditions: Homo sapiens, NCI-H2052
LoVo = experiment: Cell line IC50 (Table 3); assay type: cell-based; conditions: Homo sapiens
Saos-2 = experiment: Cell line IC50 (Table 3); assay type: cell-based; conditions: Homo sapiens
H292 = experiment: Cell line IC50 (Table 3); assay type: cell-based; conditions: Homo sapiens, NCI-H292
Colo205 = experiment: Cell line IC50 (Table 3); assay type: cell-based; conditions: Homo sapiens, COLO 205
HT-29 [2] = experiment: Cell line IC50 (Table 3); assay type: cell-based; conditions: Homo sapiens
NCI-H460 = experiment: Cell line IC50 (Table 3); assay type: cell-based; conditions: Homo sapiens
LP-1 = experiment: Cell line IC50 (Table 3); assay type: cell-based; conditions: Homo sapiens
A549 = experiment: Cell line IC50 (Table 3); assay type: cell-based; conditions: Homo sapiens
MESSA = experiment: Cell line IC50 (Table 3); assay type: cell-based; conditions: Homo sapiens, MES-SA
HCT 116 = experiment: Cell line IC50 (Table 3); assay type: cell-based; conditions: Homo sapiens
MCF7 = experiment: Cell line IC50 (Table 3); assay type: cell-based; conditions: Homo sapiens
NCI-H929 = experiment: Cell line IC50 (Table 3); assay type: cell-based; conditions: Homo sapiens
A2780 = experiment: Cell line IC50 (Table 3); assay type: cell-based; conditions: Homo sapiens
H358 = experiment: Cell line IC50 (Table 3); assay type: cell-based; conditions: Homo sapiens, NCI-H358
cell lines of Table 3 = experiment: Cell line panel of Table 3, summary over cell lines; assay type: cell-based; conditions: Homo sapiens, read-out: Median IC50

Structure (SMILES): CC[C@H](CO)Nc1nc(NCc2ccccc2)c2ncn(C(C)C)c2n1 [seliciclib, roscovitine]
- Fractional Growth (ACHN): 0.4977
- Fractional Growth (COLO 853): 0.154
- Fractional Growth (FTC-133): 0.393
- Fractional Growth (H2869): 0.5086
- Fractional Growth (HCC-827): 0.4812
- Fractional Growth (HT-1197): 0.5024
- Fractional Growth (HT-29 [1]): 0.5243
- Fractional Growth (J82): 0.4753
- Fractional Growth (LCLC-97TM1): 0.1711
- Fractional Growth (MDA-H2774): 0.491
- Fractional Growth (NCI-H1703): 0.4772
- Fractional Growth (Panc 10.05): 0.493
- Fractional Growth (S-117): 0.696
- Fractional Growth (SW-1710): 0.6764
- Fractional Growth (UMC-11): 0.4912
- IC50 (H1650): 21.9 µM
- IC50 (H2052): 17.1 µM
- IC50 (LoVo): 17.1 µM
- IC50 (Saos-2): 17 µM
- IC50 (H292): 15.4 µM
- IC50 (Colo205): 13.3 µM
- IC50 (HT-29 [2]): 12.5 µM
- IC50 (NCI-H460): 12.3 µM
- IC50 (LP-1): 11.7 µM
- IC50 (A549): 10.5 µM
- IC50 (MESSA): 10 µM
- IC50 (HCT 116): 9.5 µM
- IC50 (MCF7): 9.4 µM
- IC50 (NCI-H929): 8.1 µM
- IC50 (A2780): 6.7 µM
- IC50 (H358): 5.8 µM
- IC50 (cell lines of Table 3): 12.3 µM
